# No constants are given. Whether binding was seen depends on the method and setting.
# B1: PFV Env leader peptide residues 1-20 (peptide, UniProt P14351 1-20, looked up)
# peptide: MAPPMTLQQWIIWKKMNKAH
# notes: Envelope (Env) protein of Prototypic Foamy Virus, N-terminal leader peptide region, residues 1-20 (Met1 to His20); the text names M1, A2, P3, P4, M5, T6, L7, Q9, W10, W13, M16, A19, H20; also called Env_(1-20); Env(1-20); source: synthetic peptide, bought HPLC purified: Pepceuticals Ltd
# Target: T1, PFV-Gag-NtD V14S/V18S/L21S (Prototypic foamy virus (PFV)) (UniProt P14349)
# T1 sequence: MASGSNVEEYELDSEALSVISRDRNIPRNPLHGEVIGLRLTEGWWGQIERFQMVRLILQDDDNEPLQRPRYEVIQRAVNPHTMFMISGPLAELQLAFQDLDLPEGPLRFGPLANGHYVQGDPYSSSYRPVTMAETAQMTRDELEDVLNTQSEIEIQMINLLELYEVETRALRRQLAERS
# Assay: AUC; sedimentation velocity of 75 µM equimolar mixtures of Gag-NtD and Env peptide, absorbance at 280 nm; bound fraction from the integrated absorbance of the 3S species in C(S); both purified
binder,measurement,value
B1,binding,no binding (tested: 75 µM equimolar mixture)
